The list shows a part of the results. The main result of the screen is listed elsewhere. These columns were measured beside it and carry no call. Most of these compounds were active or inconclusive in the main read-out, so they are no random draw. Words in brackets tell the shape of the fitted curve; partial curves, single points and poor fits give uncertain potencies.
Experiment: IkB Signaling
Details: ABC-DLBCL IkBa-CBG/CBR dual luciferase ratio (green luciferase fused to IkBa over red control in OCI-Ly3 lymphoma cells), 4 h
Summary of the method: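 In this assay, an IκBα–CBG68 fusion accumulates when IKK-driven degradation is blocked; native CBR normalizes for cell number. OCI-Ly3 cells were treated 4 h with compound and doxycycline, then green and red light read after Chroma-Glo addition.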

[1] = measured here: control luc red channel unless noted
[2] = measured here: IkB-luc green channel
[3] = measured here: control luc red channel

For `COc1ccc(CNC(=O)c2c(Nc3ccccc3C)sc(C(=O)c3ccccc3)c2N)cc1`, the AC50 [1] was 5.01 µM [falling, partial curve].

In the case of `CC1CN(C(=O)N2CCC(C(=O)NCc3ccco3)CC2)c2cc(Cl)ccc2O1` (stereo not drawn), the AC50 [1] is reported as 39.8 µM [falling, single point].

In the case of `COc1ccc(NC(=O)c2cc(-c3ccccc3O)no2)cc1`, the AC50 [1] is reported as 20 µM [falling, partial curve].

In the case of `O=C(CSc1nc(-c2cccs2)nc2cc(=O)[nH]n12)Nc1ccc(F)cc1`, the AC50 [1] is reported as 20 µM [falling, partial curve, poor fit].

With `CCOc1ccc(NC(=O)CNS(=O)(=O)c2ccc(Br)s2)cc1` the AC50 [1] was 12.6 µM [falling, partial curve].

With `CCOC(=O)c1sc2ccccc2c1S(=O)(=O)N1CCN(c2ccccc2)CC1` the AC50 [1] was 1.26 µM [rising, full curve, poor fit].

With `CCOC(=O)CSc1nc2ccc(NC(=O)c3ccccc3)cc2s1` the AC50 [1] was 31.6 µM [falling, single point].

For `CCOC(=O)Cn1c(=O)oc2cc(S(=O)(=O)Nc3ccc(N(CC)CC)cc3C)ccc21`, the AC50 [2] was 6.31 µM [falling, single point] and the AC50 [3] was 6.31 µM [falling, partial curve].

For `Cc1ccc(C)c(N2CCN(Cc3nnc(-c4ccccc4)o3)CC2)c1`, the AC50 [1] was 39.8 µM [falling, single point].

For `O=C(CSc1n[nH]c(-c2ccncc2)n1)c1ccccc1`, the AC50 [2] was 31.6 µM [rising, single point] and the AC50 [3] was 20 µM [falling, partial curve].

For `COC(=O)c1ccccc1NC(=O)CSc1nc2c(c(=O)n(C)c(=O)n2C)n1C`, the AC50 [1] was 0.1 µM [rising, full curve].

With `Cc1ccc2cccc(NC(=O)C(C)(C)Oc3ccc(Br)cc3)c2n1` the AC50 [1] was 3.16 µM [rising, full curve, poor fit].

For `CCCS(=O)(=O)Nc1cc2c(cc1NCc1ccccc1)n(C)c(=O)n2C`, the AC50 [1] was 31.6 µM [rising, single point] [measured here: IkB-luc green channel].

For `CCOC(=O)c1ccccc1NC(=O)Cn1c2ncccc2c(=O)n1-c1ccccc1`, the AC50 [1] was 0.0794 µM [rising, full curve, poor fit].

With `Cc1ccc(-c2[nH]nc3c2C(c2ccoc2)C(C#N)=C(N)O3)cc1C` (stereo not drawn) the AC50 [1] was 15.8 µM [falling, partial curve].

For `COc1ccc(-n2c(Cc3cccn3C)nnc2SCC(=O)Nc2ccc(Cl)cc2)cc1`, the AC50 [1] was 15.8 µM [falling, partial curve].

With `Cc1nc2c(C(=O)NC(C)c3ccccc3)cnn2c(C)c1Cc1ccccc1` (stereo not drawn) the AC50 [1] was 31.6 µM [falling, single point].

For `COC(=O)c1cc2occc2n1Cc1nc(-c2ccc(C)cc2)oc1C`, the AC50 [1] was 31.6 µM [falling, single point].

In the case of `CCC(=O)Nc1nnc(S(=O)(=O)N2CCc3ccccc32)s1`, the AC50 [1] is reported as 39.8 µM [falling, single point].

In the case of `CSc1ccc(C2Nc3ccccc3-c3cc(C)nn32)cc1` (stereo not drawn), the AC50 [1] is reported as 39.8 µM [falling, single point].

For `Cc1cc(C(=O)COc2nncc3ccccc23)c(C)n1C`, the AC50 [1] was 25.1 µM [rising, partial curve] [measured here: IkB-luc green channel].

With `Cc1cccc(NC(=O)c2cc(S(=O)(=O)N3CCC4(CC3)OCCO4)ccc2F)c1` the AC50 [1] was 15.8 µM [falling, partial curve].

For `COc1ccc(N2CC(NC(=O)c3ccc(S(=O)(=O)N4CCCCC4)cc3)CC2=O)cc1OC` (stereo not drawn), the AC50 [1] was 6.31 µM [rising, single point] [measured here: IkB-luc green channel].

With `COc1cc(OC)cc(-c2nc3nc(C)c(CCC(=O)Nc4cc(F)ccc4F)c(C)n3n2)c1` the AC50 [1] was 15.8 µM [falling, partial curve].

With `CCOC(=O)c1ccc(NC(=O)Cn2cc(C(=O)c3ccc(Cl)cc3)c(=O)c3ccc(C)nc32)cc1` the AC50 [1] was 12.6 µM [falling, partial curve].

With `COc1ccc2oc(-c3ccc(C)c(NC(=O)Cc4ccc(Cl)cc4)c3)nc2c1` the AC50 [1] was 12.6 µM [falling, partial curve].

In the case of `CCOc1cccc(C(=O)Nc2cccc(-c3nnc(-c4ccccc4)o3)c2)c1`, the AC50 [1] is reported as 2.51 µM [falling, full curve, poor fit].

With `Cc1nc2cc(-c3ccccc3)nn2c(C)c1CCC(=O)N1CCN(c2ccccc2)CC1` the AC50 [1] was 3.16 µM [falling, partial curve].

With `O=C(NCCc1csc(-c2ccc(F)cc2)n1)c1ccc(Br)o1` the AC50 [1] was 20 µM [falling, partial curve].

For `Cc1ccccc1CN1CCN(CC(=O)NCc2ccccc2Cl)C1=O`, the AC50 [1] was 10 µM [falling, partial curve].

With `Cc1nc(C)c(C(=O)Nc2cccc(Cl)c2)o1` the AC50 [1] was 12.6 µM [falling, partial curve].

With `Fc1ccc2c(c1)NC(c1ccncc1)=NC(c1cccs1)=N2` the AC50 [1] was 20 µM [falling, partial curve].

For `Cc1oc(-c2nc3ccccc3n2C)cc1C(=O)c1ccccc1`, the AC50 [1] was 12.6 µM [falling, partial curve].

With `COc1ccc(NC(=O)c2ccc(COc3ccccc3OC)o2)cc1OC` the AC50 [1] was 12.6 µM [falling, partial curve].

In the case of `CCn1cc(C(=O)NCc2ccccc2)c(=O)c2cc(S(=O)(=O)N3CCCCCC3)ccc21`, the AC50 [1] is reported as 7.94 µM [falling, full curve].

For `COc1ccc(Br)cc1CNC(=O)C1CCCCN1S(=O)(=O)c1ccc(F)cc1` (stereo not drawn), the AC50 [1] was 31.6 µM [falling, partial curve].

In the case of `Cc1ccc(OCc2nc3ccccc3n2Cc2ccccc2Cl)cc1`, the AC50 [1] is reported as 31.6 µM [falling, single point].

In the case of `COc1cccc(OCC(=O)N(Cc2nc(-c3ccc(Cl)cc3)no2)C(C)C)c1`, the AC50 [1] is reported as 15.8 µM [falling, partial curve].

For `O=C(Cc1ccccc1)Nc1c(C(=O)Nc2ccccc2F)oc2ccccc12`, the AC50 [1] was 1.58 µM [falling, full curve].

In the case of `CCOc1ccc(-c2cc(CCCC(=O)N3CCN(c4ccc(OC)cc4)CC3)no2)cc1`, the AC50 [1] is reported as 6.31 µM [falling, partial curve].

For `O=C(Cn1ncc2c(=O)oc3ccccc3c21)NCc1ccc(Cl)cc1`, the AC50 [1] was 2.51 µM [falling, full curve, poor fit].

With `O=C(NCCCN1CCN(c2ccccc2F)CC1)c1nnc(Cc2ccc(Cl)cc2Cl)o1` the AC50 [1] was 39.8 µM [falling, single point].

For `CCOC(=O)c1c(NC(=O)COc2ccc(F)cc2)sc2c1CCC(C)C2` (stereo not drawn), the AC50 [1] was 12.6 µM [falling, partial curve, poor fit].

In the case of `N#C/C(=C\c1ccc(-c2cc(Cl)ccc2Cl)o1)C(=O)Nc1ccccc1C(=O)O`, the AC50 [1] is reported as 1.58 µM [falling, full curve].

With `O=C(CSc1nc2ccccc2n1Cc1ccccc1Cl)NCc1ccccc1` the AC50 [1] was 20 µM [falling, partial curve].

For `COc1ccccc1CC(=O)N1CCN(c2cccc(C(F)(F)F)c2)CC1`, the AC50 [1] was 10 µM [falling, partial curve].

With `CCOC(=O)c1[nH]cnc1C(=O)Nc1ccc(F)cc1` the AC50 [1] was 15.8 µM [rising, partial curve].

With `Cc1cc(C)c(Cn2c(C(O)c3ccccc3)nc3ccccc32)c(C)c1` (stereo not drawn) the AC50 [1] was 15.8 µM [falling, single point].

In the case of `N#C/C(=C(/O)COC(=O)CCC1CCCCC1)c1nc2ccccc2[nH]1`, the AC50 [1] is reported as 25.1 µM [rising, single point] [measured here: IkB-luc green channel].

With `COc1ccccc1-c1cc(C(=O)NCc2ccccc2)no1` the AC50 [1] was 5.01 µM [falling, full curve].

With `CCOC(=O)c1c(-c2ccc(OC)cc2)oc2ccc(OCc3ccc(C(=O)OC)cc3)cc12` the AC50 [1] was 12.6 µM [falling, partial curve].

For `CCNc1c(NC(=O)c2cc(OCC)c(OCC)c(OCC)c2)c(=O)oc2ccccc12`, the AC50 [1] was 15.8 µM [falling, partial curve].

With `CC1(C)Cc2c(sc3c2c(=N)n(Cc2ccco2)c(=O)n3CC(=O)Nc2ccc(Cl)cc2)CO1` the AC50 [1] was 3.98 µM [falling, full curve].

With `CC(C)C(OC(=O)c1cc2occc2n1C)C(=O)NCc1ccc2c(c1)OCO2` (stereo not drawn) the AC50 [1] was 15.8 µM [falling, partial curve].

In the case of `COc1cccc(NC(=O)CN2CCN(S(=O)(=O)c3ccc(C(C)C)cc3)CC2)c1`, the AC50 [1] is reported as 12.6 µM [falling, partial curve].

In the case of `Cc1ccc2oc(-c3ccc(C)c(NC(=O)/C=C/c4ccc(Cl)cc4)c3)nc2c1`, the AC50 [1] is reported as 2 µM [falling, full curve].

In the case of `Cc1cc(C)cc(NC(=O)Cn2cc(C(=O)c3cccs3)c3ccccc32)c1`, the AC50 [1] is reported as 3.98 µM [falling, full curve].

In the case of `COc1ccc(Nc2c(-c3ccc(C)o3)nc3cc(C)ccn23)cc1`, the AC50 [1] is reported as 2 µM [falling, partial curve].

With `CCOc1ccc(N2CC(NC(=O)C3CCCCC3)CC2=O)cc1` (stereo not drawn) the AC50 [1] was 6.31 µM [falling, single point].

For `Cc1cccc(C)c1-n1ncc(C(=O)NC2CCCC2)c1C1CCN(C(=O)OC(C)(C)C)CC1`, the AC50 [1] was 10 µM [falling, partial curve].

In the case of `O=C(c1ccc2c(c1)CCN2S(=O)(=O)c1ccc(Cl)cc1)N1CCN(c2ccc(F)cc2)CC1`, the AC50 [1] is reported as 10 µM [falling, partial curve].

From PubChem BioAssay AID445 (National Center for Advancing Translational Sciences (NCATS), 2006)
